Test results as given in paper PMC12095075.
These are yes or no findings as the source states them, for the method shown. Binding seen in cells or lysates may run through a third protein. Some binding calls cover weakened binding; strength is not graded here.

Sequences of proteins named here, by UniProt entry; tags and fusion partners are left off. A change or cut given only in a name is not applied to a line headed by its entry. A line that says so, or that is headed by a name, gives the form on record, which may keep a tag or linker.
BMAL1–Flag (pcDNA3-mBmal1) (Q9WTL8, form named): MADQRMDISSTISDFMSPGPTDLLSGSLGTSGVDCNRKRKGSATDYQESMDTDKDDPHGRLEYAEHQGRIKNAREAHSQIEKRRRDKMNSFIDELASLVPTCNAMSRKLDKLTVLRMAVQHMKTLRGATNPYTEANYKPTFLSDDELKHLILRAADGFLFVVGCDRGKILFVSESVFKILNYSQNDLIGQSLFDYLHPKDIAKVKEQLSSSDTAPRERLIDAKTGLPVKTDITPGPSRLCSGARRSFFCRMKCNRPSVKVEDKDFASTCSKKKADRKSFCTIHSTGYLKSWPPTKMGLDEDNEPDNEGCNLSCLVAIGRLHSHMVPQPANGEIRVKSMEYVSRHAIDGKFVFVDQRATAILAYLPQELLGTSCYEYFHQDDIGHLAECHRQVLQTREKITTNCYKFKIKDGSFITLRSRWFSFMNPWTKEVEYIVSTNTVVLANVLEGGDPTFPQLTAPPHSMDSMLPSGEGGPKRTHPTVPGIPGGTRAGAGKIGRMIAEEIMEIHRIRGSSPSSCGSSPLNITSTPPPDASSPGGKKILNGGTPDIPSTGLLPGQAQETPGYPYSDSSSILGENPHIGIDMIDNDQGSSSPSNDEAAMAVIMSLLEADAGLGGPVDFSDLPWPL

Molecular target: BMAL1–Flag (pcDNA3-mBmal1) (mouse) (UniProt Q9WTL8)
Assay: co-IP; HEK293 cells overexpressing BMAL1-Flag (pcDNA3-mBmal1), normoxia or hypoxia (1% O2, 4 h); cytoplasmic and nuclear fractions; IP with anti-Flag (reciprocal IP with anti-HIF2A in Extended Data Fig. 2b); western blot

binding: binds
B1: CLOCK, endogenous in HEK293 cells (protein, UniProt O15516 1-846)
chain: MLFTVSCSKMSSIVDRDDSSIFDGLVEEDDKDKAKRVSRNKSEKKRRDQFNVLIKELGSMLPGNARKMDKSTVLQKSIDFLRKHKEITAQSDASEIRQDWKPTFLSNEEFTQLMLEALDGFFLAIMTDGSIIYVSESVTSLLEHLPSDLVDQSIFNFIPEGEHSEVYKILSTHLLESDSLTPEYLKSKNQLEFCCHMLRGTIDPKEPSTYEYVKFIGNFKSLNSVSSSAHNGFEGTIQRTHRPSYEDRVCFVATVRLATPQFIKEMCTVEEPNEEFTSRHSLEWKFLFLDHRAPPIIGYLPFEVLGTSGYDYYHVDDLENLAKCHEHLMQYGKGKSCYYRFLTKGQQWIWLQTHYYITYHQWNSRPEFIVCTHTVVSYAEVRAERRRELGIEESLPETAADKSQDSGSDNRINTVSLKEALERFDHSPTPSASSRSSRKSSHTAVSDPSSTPTKIPTDTSTPPRQHLPAHEKMVQRRSSFSSQSINSQSVGSSLTQPVMSQATNLPIPQGMSQFQFSAQLGAMQHLKDQLEQRTRMIEANIHRQQEELRKIQEQLQMVHGQGLQMFLQQSNPGLNFGSVQLSSGNSSNIQQLAPINMQGQVVPTNQIQSGMNTGHIGTTQHMIQQQTLQSTSTQSQQNVLSGHSQQTSLPSQTQSTLTAPLYNTMVISQPAAGSMVQIPSSMPQNSTQSAAVTTFTQDRQIRFSQGQQLVTKLVTAPVACGAVMVPSTMLMGQVVTAYPTFATQQQQSQTLSVTQQQQQQSSQEQQLTSVQQPSQAQLTQPPQQFLQTSRLLHGNPSTQLILSAAFPLQQSTFPQSHHQQHQSQQQQQLSRHRTDSLPDPSKVQPQ
